System: OVCAR8 cells
Settings: OVCAR8, 15 h, GF-AAS

`[Cl-].[Cl][Au-]1([c]2ccccc2Cc2ccccn2)[P+](c2ccccc2)(c2ccccc2)c2ccccc2[P+]1(c1ccccc1)c1ccccc1` [AuPhos-84, (2-benzylpyridine)[1,2-Bis(diphenylphosphino)benzene]gold(III) Dichloride] was tested, and the whole-cell uptake was “appreciable amount of compound was detected in cells”.
For `[Cl-].[Cl][Au-]1([c]2ccccc2-c2ccccn2)[P+](c2ccccc2)(c2ccccc2)c2ccccc2[P+]1(c1ccccc1)c1ccccc1` [AuPhos-89, (2-phenylpyridine)[1,2-Bis(diphenylphosphino)benzene]gold(III) Dichloride], the whole-cell uptake was “appreciable amount of compound was detected in cells”.
